Data reported in publication PMC4098787.
Read-outs that look alike come from different tables or passages of the source. Results are given in words; binding and its absence hold for the method and conditions named. In cells and extracts the contact can be indirect. Some binding calls cover weakened binding; strength is not graded here. For some of these results: Where a sequence is shown, tags or fusion partners need not be part of it.

By UniProt entry, the sequences of proteins in these tests, tags left out. Where a name states a change or a piece, a line headed by the entry shows the natural chain unless it says otherwise.
UniProt Q9Y3Z3: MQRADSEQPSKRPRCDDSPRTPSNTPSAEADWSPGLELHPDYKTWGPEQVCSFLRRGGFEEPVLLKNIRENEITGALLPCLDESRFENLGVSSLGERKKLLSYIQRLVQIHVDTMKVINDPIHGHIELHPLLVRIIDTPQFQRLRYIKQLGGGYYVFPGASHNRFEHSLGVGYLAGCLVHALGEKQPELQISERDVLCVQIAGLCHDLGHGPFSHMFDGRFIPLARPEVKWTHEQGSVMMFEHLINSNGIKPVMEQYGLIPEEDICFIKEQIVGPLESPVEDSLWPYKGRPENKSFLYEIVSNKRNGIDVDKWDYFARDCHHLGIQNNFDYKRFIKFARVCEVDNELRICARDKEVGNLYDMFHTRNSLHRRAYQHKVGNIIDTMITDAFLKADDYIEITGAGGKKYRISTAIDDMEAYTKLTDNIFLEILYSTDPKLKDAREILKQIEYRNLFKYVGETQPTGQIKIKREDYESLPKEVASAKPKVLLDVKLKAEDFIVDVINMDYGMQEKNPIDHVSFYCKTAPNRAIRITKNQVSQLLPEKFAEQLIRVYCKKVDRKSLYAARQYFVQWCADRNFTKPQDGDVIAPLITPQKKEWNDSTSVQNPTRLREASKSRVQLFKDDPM
UniProt P52294: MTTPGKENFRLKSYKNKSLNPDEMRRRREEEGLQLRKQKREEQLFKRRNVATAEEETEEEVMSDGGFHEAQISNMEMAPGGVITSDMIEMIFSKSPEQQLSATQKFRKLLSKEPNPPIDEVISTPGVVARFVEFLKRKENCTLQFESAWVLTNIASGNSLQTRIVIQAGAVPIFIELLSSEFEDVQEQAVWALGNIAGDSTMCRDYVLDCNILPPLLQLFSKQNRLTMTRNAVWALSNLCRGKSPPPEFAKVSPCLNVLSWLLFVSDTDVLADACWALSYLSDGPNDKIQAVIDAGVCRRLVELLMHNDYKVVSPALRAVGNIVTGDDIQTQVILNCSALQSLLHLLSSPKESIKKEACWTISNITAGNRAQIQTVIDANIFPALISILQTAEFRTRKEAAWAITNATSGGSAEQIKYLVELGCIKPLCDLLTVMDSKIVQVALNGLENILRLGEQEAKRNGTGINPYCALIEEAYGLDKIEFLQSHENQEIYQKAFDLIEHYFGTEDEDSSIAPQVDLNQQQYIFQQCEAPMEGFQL

How the values were obtained:
Test in all cases: pull-down; GST pull-down from lysates of co-transfected 293 T cells, 48 h after transfection; glutathione-sepharose beads 3 h at 4°C; lysis buffer 50 mM Tris-HCl pH 7.4, 150 mM NaCl, 5 mM EDTA, 5% glycerol, 1% Triton X-100; western blot with anti-HA or anti-Flag
[1] = target: GST-tagged SAMHD1 K11A mutant (human) (UniProt Q9Y3Z3)
[2] = target: GST-tagged wild type SAMHD1 (sterile alpha motif domain and HD domain 1) (human) (UniProt Q9Y3Z3)
[3] = target: GST-tagged SAMHD1 K11A mutant (human) (UniProt Q9Y3Z3); remark: listed apart in the source
[4] = target: GST-tagged wild type SAMHD1 (sterile alpha motif domain and HD domain 1) (human) (UniProt Q9Y3Z3); remark: listed apart in the source

Row | Molecule | binding [1] | binding [2] | binding [3] | binding [4]
1 | HA-tagged karyopherin α1 (KPNA1) (from UniProt P52294 1-538) | binds | binds | – | –
2 | Flag-tagged Vpx protein of HIV-2ROD (protein, UniProt P06939 1-112) MTDPRETVPPGNSGEETIGEAFAWLNRTVEAINREAVNHLPRELIFQVWQRSWRYWHDEQGMSESYTKYRYLCIIQKAVYMHVRKGCTCLGRGHGPGGWRPGPPPPPPPGLV | – | – | binds | binds
